# Screen size: about 410,000 compounds; about 18,000 (4.4%) were called active. The shares of active, inactive and inconclusive entries below differ from those in the screen. No stated cut-off is given here; in the data, active means activity change below about -60%; inconclusive means no clear call, values can overlap the other calls; inactive means above about -39%.
# Assay: qHTS Assay for inhibitors of the human cytomegalovirus (HCMV)
# Conditions: HFF cells, HCMV-luciferase reporter, 72 h; at 57.5 µM; active compounds read low
# Method in brief: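 Screen run at 2 compound doses on HFFs infected with reporter HCMV, MOI 1 PFU/cell. Luciferase activity from cell lysates at 72 h post infection gave inhibition relative to buffer-only and Salinomycin wells.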
# On the % scale 0 is the no-effect control and ±100 the full control effect.
row,SMILES,"activity change, negative = inhibition"
1,Cc1cc(CN2CCN(c3cccc(C)c3C)CC2)cs1,active: -68.7%
2,COc1cccc(-n2c(SCC(=O)Nc3nnc(C)s3)nc3c([nH]c4ccccc43)c2=O)c1,inconclusive: -56.9%
3,O=C1CN(C(=O)COC(=O)/C=C/c2ccc(F)cc2)c2ccccc2N1,inconclusive: -56.3%
4,COc1ccc(S(=O)(=O)N2CCCCCC2)cc1NC(=O)c1ccccc1F,inconclusive: -42.9%
5,Cc1cc(C)cc(-n2cnc3cc(C(=O)O)ccc32)c1,inconclusive: -46.4%
6,COc1ccc(NC(=O)CN(C)S(=O)(=O)c2ccc(Br)s2)cc1OC,inconclusive: -45%
7,CCOC1=C2[C@H](c3ccc(CC)cc3)N(S(=O)(=O)c3ccc(C)cc3)C[C@H]2C(C#N)(C#N)C(C#N)(C#N)C1,active: -74%
8,O=C(Nc1nnc(C2CC2)o1)c1ccc(S(=O)(=O)N2CCCCC2)cc1,active: -61%
9,CCC1CCCCN1S(=O)(=O)c1cc(C(=O)Nc2ccc(C)c(F)c2)ccc1F (centres undefined),active: -90.5%
10,Cc1nc(Sc2ccc(Cl)cc2)c(C#N)c(C)c1[N+](=O)[O-],active: -75%
11,CC(=O)c1ccccc1NC(=O)CCNC(=O)c1ccco1,inconclusive: -48.9%
12,Cc1ccc(-n2ncc(C(=O)Nc3cc(Cl)cc(Cl)c3)c2C2CCNCC2)cc1C,active: -98.7%
13,COC(=O)c1c(NC(=O)CN2CCC3(O)CCCCC3C2c2ccccc2OC)sc(C)c1C (centres undefined),inconclusive: -51.2%
14,O=C(CSc1nnc(-c2ccccc2)o1)Nc1ccccc1F,inconclusive: -52.2%
15,COc1ccc(N(CC(=O)N2CCN(Cc3ccc4c(c3)OCO4)CC2)S(=O)(=O)c2ccc(F)cc2)cc1,inconclusive: -44%
16,Cc1ccc(-n2c(C)c([N+](=O)[O-])c3ccc(O)cc32)cc1,inconclusive: 0%
17,Cc1ccc(/C=C/C(=O)c2ccc(C)cc2)cc1,inactive: 17%
18,Cc1ccccc1OCCC(=O)N1CCN(S(=O)(=O)c2ccccc2F)CC1,inconclusive: -50.6%
19,Clc1ccc(Cn2ncc3c(NCc4cccnc4)ncnc32)cc1,active: -72.2%
20,O=C(c1ccc(Cl)c(S(=O)(=O)N2CCCC2)c1)N1CCN(c2ccccc2)CC1,inconclusive: -47.3%
21,Cc1ccc(/C=C2\SC(=O)N(CCNC(=O)C3CSC4(C)CCC(=O)N34)C2=O)cc1 (centres undefined),inconclusive: -42.2%
22,c1ccc(C(c2c[nH]c3ccccc23)c2c[nH]c3ccccc23)nc1,inactive: 22.9%
23,O=S(=O)(NCCN1CCOCC1)c1ccc2c(c1)OCCO2,inconclusive: -48.1%
24,CCC(=O)Nc1ccc(NC(=S)NC(=O)/C=C/c2ccccc2)cc1,inconclusive: -45.7%

# Not a retest: two of the compounds above.
row,SMILES,"activity change, negative = inhibition"
18,Cc1ccccc1OCCC(=O)N1CCN(S(=O)(=O)c2ccccc2F)CC1,inconclusive: -50.6%
19,Clc1ccc(Cn2ncc3c(NCc4cccnc4)ncnc32)cc1,active: -72.2%
